PubChem BioAssay AID1259405, NCATS | 2018

Test: 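Mouse-designed siRNAs used to find CHO productivity engineering targets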 (primary screen)
Cell system: Chinese hamster CHO-K1 ovary cells with stable secreted eGFP expression
Knock-down reagent: single siRNA against mouse genes, 0.8 pmol siRNA per well (2 µl of 400 nM stock)
Duration: 3 days
Detection: 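Percent of the per-plate non-targeting control median for intracellular GFP per well by laser scanning cytometry and for cell viability by ATP luminescence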
Scale: GFP, % of control: higher = more GFP per well, higher productivity; viability (ATP), % of control: higher = more viable cells (more ATP)
Active means: 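a knock-down is called active if GFP reaches 120% or more of non-targeting control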
This is one part, drawn at random, of about 50,000 deposited reagents. In the full data, about 4,000 (8%) got an active call. 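Mouse siRNA library applied to hamster cells; one well for each siRNA.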 Entries without a mark were called inactive. Reagents against one gene are numbered here.

With knock-down of Med20 #1 the results were GFP, % of control 50.9; viability (ATP), % of control 32.9.
Silencing of Med20 #2 resulted in: GFP, % of control 66.8; viability (ATP), % of control 75.8.
With knock-down of Med20 #3 the results were GFP, % of control 69; viability (ATP), % of control 75.4.
With knock-down of Defb9 #1, the record shows GFP, % of control 79.8; viability (ATP), % of control 99.8.
Depletion of Defb9 #2 came out at: GFP, % of control 87.5; viability (ATP), % of control 82.4.
For Defb9 #3 the deposit lists GFP, % of control 138 (active); viability (ATP), % of control 42.2.
Dlx3 #1 scored GFP, % of control 72.5; viability (ATP), % of control 68.8.
Dlx3 #2 showed GFP, % of control 122 (active); viability (ATP), % of control 117.
With knock-down of Dlx3 #3, the screen gave GFP, % of control 60; viability (ATP), % of control 34.8.
Depletion of Spata31d1d #1 gave: GFP, % of control 63.5; viability (ATP), % of control 70.7.
After knock-down of Spata31d1d #2, the record shows GFP, % of control 112; viability (ATP), % of control 75.2.
With knock-down of Spata31d1d #3, the record shows GFP, % of control 76.6; viability (ATP), % of control 108.
Prkcsh #1 scored GFP, % of control 79.3; viability (ATP), % of control 40.8.
With knock-down of Prkcsh #2, the screen gave GFP, % of control 65.7; viability (ATP), % of control 87.7.
After knock-down of Prkcsh #3, the record shows GFP, % of control 66.4; viability (ATP), % of control 74.8.
Against Zmat2 #1, the entry reads GFP, % of control 97.9; viability (ATP), % of control 94.6.
With knock-down of Zmat2 #2 the results were GFP, % of control 116; viability (ATP), % of control 71.8.
After knock-down of Zmat2 #3, the screen gave GFP, % of control 86; viability (ATP), % of control 94.8.
Ncam2 #1 gave GFP, % of control 96.7; viability (ATP), % of control 78.1.
Ncam2 #2 showed GFP, % of control 76.8; viability (ATP), % of control 72.8.
For Ncam2 #3, the values are GFP, % of control 119; viability (ATP), % of control 113.
Depletion of Tas1r3 #1 came out at: GFP, % of control 85.1; viability (ATP), % of control 78.7.
Tas1r3 #2 gave GFP, % of control 67.6; viability (ATP), % of control 71.7.
Tas1r3 #3 gave GFP, % of control 59.4; viability (ATP), % of control 117.
Phlda2 #1 gave GFP, % of control 67.6; viability (ATP), % of control 68.7.
Phlda2 #2 showed GFP, % of control 79.8; viability (ATP), % of control 76.1.
Phlda2 #3 showed GFP, % of control 84.4; viability (ATP), % of control 102.

3 of these entries in another layout.
Defb9 #3
- GFP, % of control: 138 (active)
- viability (ATP), % of control: 42.2

Dlx3 #1
- GFP, % of control: 72.5
- viability (ATP), % of control: 68.8

Dlx3 #2
- GFP, % of control: 122 (active)
- viability (ATP), % of control: 117
